In publication doi:10.1101/2025.11.03.686288 one finds binding data, which are given here for two substances.

This experiment has as its target T1, S. cerevisiae Sgt2, GAL4 fusion (S. cerevisiae) (UniProt Q12118).
T1 sequence: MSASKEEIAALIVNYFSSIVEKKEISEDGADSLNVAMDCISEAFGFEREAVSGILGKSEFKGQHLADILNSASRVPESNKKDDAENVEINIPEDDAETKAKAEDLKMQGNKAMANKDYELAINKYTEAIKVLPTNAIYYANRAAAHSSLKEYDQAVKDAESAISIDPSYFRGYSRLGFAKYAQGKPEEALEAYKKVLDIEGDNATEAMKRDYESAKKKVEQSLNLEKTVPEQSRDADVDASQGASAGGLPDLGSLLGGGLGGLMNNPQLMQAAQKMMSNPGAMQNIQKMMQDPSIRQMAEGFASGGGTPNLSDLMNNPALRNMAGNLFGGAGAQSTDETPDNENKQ
The experiment is described as follows: two-hybrid.

Results are given in words; binding and its absence hold for the method and conditions named. Where a sequence is shown, tags or fusion partners need not be part of it.

“T. brucei PEX19 Δ30aa, GAL4 fusion (domain or fragment)”: the binding result is listed as “no binding”. For the substance “GAL4-AD fusion of T. brucei PEX19 full length”, the binding entry is reported as “no binding”.
